Assay results as given in patent publication US9517252B2, “p53 activating peptides” (Agency for Science, Technology and Research, priority 2011, dated 2016).

System: IVT-synthesized p53
Test: Effect of peptide on IVT translation of p53 (DO-1 western blot)
Conditions: 100 μM biotin-peptide vs DMSO blank

For VRHQHVGATILGWK [Pap-VRH], the “levels of mutant p53 translation” value was “no changes”.
